# From paper PMC3912200, “Structural and Functional Characterization of Cargo-Binding Sites on the μ4-Subunit of Adaptor Protein Complex 4” (PLoS ONE, 2014)
# Results are given in words; binding and its absence hold for the method and conditions named.
# T1: recombinant C-terminal domain of wild-type human μ4 (residues 160-453) (human) (UniProt O00189)
# T1 sequence: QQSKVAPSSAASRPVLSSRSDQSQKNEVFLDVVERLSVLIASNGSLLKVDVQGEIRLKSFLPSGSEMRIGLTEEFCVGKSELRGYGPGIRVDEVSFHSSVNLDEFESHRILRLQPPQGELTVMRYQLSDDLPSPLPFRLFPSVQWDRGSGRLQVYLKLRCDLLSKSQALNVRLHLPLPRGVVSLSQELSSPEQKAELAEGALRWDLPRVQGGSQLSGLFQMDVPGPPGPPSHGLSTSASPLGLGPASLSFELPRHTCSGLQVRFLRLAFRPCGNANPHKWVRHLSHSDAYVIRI
# Target: T1, recombinant C-terminal domain of wild-type human μ4 (residues 160-453) (human)
# Experiment: condition: peptide 2.5–5.0 mM into 250–500 µM μ4 construct; ITC; 28°C, 50 mM Tris-HCl pH 7.4, 150 mM NaCl; chamber 250–500 µM μ4 construct, peptide 2.5–5.0 mM in 16 injections; one-site model; both purified
row,binding,Binder
1,no binding,SDYQRL [TGN38 peptide SDYQRL]
2,no binding,SGYEVM [CD63 peptide SGYEVM]
